Data published in ChEMBL document CHEMBL2424621, “Discovery, synthesis and biological evaluation of cycloprotoberberine derivatives as potential antitumor agents” (Eur J Med Chem, 2013).
≈ marks a conversion by molar mass, not a printed value.

Tested on: MCF7
Experiment: Antiproliferative activity against human MCF7 cells assessed as growth inhibition after 24 to 48 hrs by SRB assay
Assay type: functional, cell-based
In short: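 Parental MCF-7 cells and doxorubicin-resistant MCF-7/ADrR cells were tested; the resistant line was maintained in medium containing DOX. Each line was treated at 0.039–2.5 µg/mL for 24 and 48 h. Growth was read by SRB staining after TCA fixation, with absorbance at 492 nm. IC50 is the concentration reducing cell number to 50% of control, from triplicates.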

IC50: 0.18 µg/mL (≈ 0.331 µM)
Structure (SMILES): COc1cccc2c1C(=O)c1c(O)c3c(c(O)c1C2=O)C[C@@](O)(C(=O)CO)C[C@@H]3O[C@H]1C[C@H](N)[C@H](O)[C@H](C)O1 [DOXORUBICIN]
